According to US8906909B2 (Curis, Inc., priority 2009, dated 2014):

What was measured:
Format in all cases: cell-based
MDA-MB-468 cells = assay: Cell proliferation assay Method B, MDA-MB-468; conditions: Homo sapiens, Breast, 72 hours, read-out: antiproliferative activity IC50, MDA-MB-468
Experimental: (§1) Cancer cell lines were plated at 5,000 to 10,000 per well in 96-well flat bottomed plates with various concentration of compounds. The cells were incubated with compounds for 72 hours in the presence of 0.5% of fetal bovine serum. Growth inhibition was accessed by adenosine triphosphate (ATP) content assay using Promega CellTiter-Glo kit. Promega CellTiter-Glo kit is an ATP monitoring system based on firefly luciferase. Briefly, 16 μl of mammalian cell lysis and substrate solution was added to 84 μl of culture medium per well to lyse the cells and stabilize the ATP. The mixture was shaken and incubated for 30 minutes and subsequently the luminescence was measured.

L1210 cells = assay: Cell proliferation assay Method B, L1210; conditions: Mouse LL, 72 hours, read-out: antiproliferative activity IC50, L1210
Experimental: as §1

RPMI-8226 cells = assay: Cell proliferation assay Method B, RPMI-8226; conditions: Homo sapiens, Multiple Myeloma, 72 hours, read-out: antiproliferative activity IC50, RPMI-8226
Experimental: as §1

T47D cells = assay: Cell proliferation assay Method B, T47D; conditions: Homo sapiens, Breast, 72 hours, read-out: antiproliferative activity IC50, T47D
Experimental: as §1

H460 cells = assay: Cell proliferation assay Method B, H460; conditions: Homo sapiens, NCI-H460, NSCLC, 72 hours, read-out: antiproliferative activity IC50, H460
Experimental: as §1

HCC1806 cells = assay: Cell proliferation assay Method B, HCC1806; conditions: Homo sapiens, Breast, 72 hours, read-out: antiproliferative activity IC50, HCC1806
Experimental: as §1

U937 cells = assay: Cell proliferation assay Method B, U937; conditions: Homo sapiens, U-937, AML, 72 hours, read-out: antiproliferative activity IC50, U937
Experimental: as §1

MDA-MB-436 cells = assay: Cell proliferation assay Method B, MDA-MB-436; conditions: Homo sapiens, Breast, 72 hours, read-out: antiproliferative activity IC50, MDA-MB-436
Experimental: as §1

P388 D1 cells = assay: Cell proliferation assay Method B, P388 D1; conditions: P388D1, Mouse Lymphoma, 72 hours, read-out: antiproliferative activity IC50, P388 D1
Experimental: as §1

H1975 cells = assay: Cell proliferation assay Method B, H1975; conditions: Homo sapiens, NCI-H1975, NSCLC, 72 hours, read-out: antiproliferative activity IC50, H1975
Experimental: as §1

MDA-MB-231 cells = assay: Cell proliferation assay Method B, MDA-MB-231; conditions: Homo sapiens, Breast, 72 hours, read-out: antiproliferative activity IC50, MDA-MB-231 (second listing, r32)
Experimental: as §1

THP-1 cells = assay: Cell proliferation assay Method B, THP-1; conditions: Homo sapiens, AML, 72 hours, read-out: antiproliferative activity IC50, THP-1
Experimental: as §1

MCF-7 cells = assay: Cell proliferation assay Method B, MCF-7; conditions: Homo sapiens, MCF7, Breast, 72 hours, read-out: antiproliferative activity IC50, MCF-7
Experimental: as §1

ZR-75-1 cells = assay: Cell proliferation assay Method B, ZR-75-1; conditions: Homo sapiens, Breast, 72 hours, read-out: antiproliferative activity IC50, ZR-75-1
Experimental: as §1

H1993 cells = assay: Cell proliferation assay Method B, H1993; conditions: Homo sapiens, NCI-H1993, NSCLC, 72 hours, read-out: antiproliferative activity IC50, H1993
Experimental: as §1

K562 cells = assay: Cell proliferation assay Method B, K562; conditions: Homo sapiens, CML, 72 hours, read-out: antiproliferative activity IC50, K562
Experimental: as §1

MDA-MB-361 cells = assay: Cell proliferation assay Method B, MDA-MB-361; conditions: Homo sapiens, Breast, 72 hours, read-out: antiproliferative activity IC50, MDA-MB-361
Experimental: as §1

HCC1500 cells = assay: Cell proliferation assay Method B, HCC1500; conditions: Breast, 72 hours, read-out: antiproliferative activity IC50, HCC1500
Experimental: as §1

Pfeiffer cells = assay: Cell proliferation assay Method B, Pfeiffer; conditions: Homo sapiens, NHL, 72 hours, read-out: antiproliferative activity IC50, Pfeiffer
Experimental: as §1

MOLT-4 cells = assay: Cell proliferation assay Method B, MOLT-4; conditions: Homo sapiens, ALL, 72 hours, read-out: antiproliferative activity IC50, MOLT-4
Experimental: as §1

Daudi cells = assay: Cell proliferation assay Method B, Daudi; conditions: Homo sapiens, NHL, 72 hours, read-out: antiproliferative activity IC50, Daudi
Experimental: as §1

MEG-01 cells = assay: Cell proliferation assay Method B, MEG-01; conditions: Homo sapiens, CML, 72 hours, read-out: antiproliferative activity IC50, MEG-01
Experimental: as §1

A375 cells = assay: Cell proliferation assay Method B, A375; conditions: Homo sapiens, A-375, Melanoma, 72 hours, read-out: antiproliferative activity IC50, A375
Experimental: as §1

MDA-MB-453 cells = assay: Cell proliferation assay Method B, MDA-MB-453; conditions: Homo sapiens, Breast, 72 hours, read-out: antiproliferative activity IC50, MDA-MB-453
Experimental: as §1

U87MG cells = assay: Cell proliferation assay Method B, U87MG; conditions: Homo sapiens, U-87 MG, Glioblastoma, 72 hours, read-out: antiproliferative activity IC50, U87MG
Experimental: as §1

HCC1937 cells = assay: Cell proliferation assay Method B, HCC1937; conditions: Homo sapiens, Breast, 72 hours, read-out: antiproliferative activity IC50, HCC1937
Experimental: as §1

BT474 cells = assay: Cell proliferation assay Method B, BT474; conditions: Homo sapiens, BT-474, Breast, 72 hours, read-out: antiproliferative activity IC50, BT474
Experimental: as §1

MV-4-11 cells = assay: Cell proliferation assay Method B, MV-4-11; conditions: Homo sapiens, MV4-11, AML, 72 hours, read-out: antiproliferative activity IC50, MV-4-11
Experimental: as §1

HL-60 cells = assay: Cell proliferation assay Method B, HL-60; conditions: Homo sapiens, AML, 72 hours, read-out: antiproliferative activity IC50, HL-60
Experimental: as §1

Sk-Mel-28 cells = assay: Cell proliferation assay Method B, Sk-Mel-28; conditions: Homo sapiens, Melanoma, 72 hours, read-out: antiproliferative activity IC50, Sk-Mel-28
Experimental: as §1

Raji cells = assay: Cell proliferation assay Method B, Raji; conditions: Homo sapiens, NHL, 72 hours, read-out: antiproliferative activity IC50, Raji
Experimental: as §1

Ca127 cells = assay: Cell proliferation assay Method B, Ca127; conditions: HNC, 72 hours, read-out: antiproliferative activity IC50, Ca127
Experimental: as §1

ARH77 cells = assay: Cell proliferation assay Method B, ARH77; conditions: Homo sapiens, ARH-77, Multiple Myeloma, 72 hours, read-out: antiproliferative activity IC50, ARH77
Experimental: as §1

UACC-893 cells = assay: Cell proliferation assay Method B, UACC-893; conditions: Homo sapiens, Breast, 72 hours, read-out: antiproliferative activity IC50, UACC-893
Experimental: as §1

SUP-B15 cells = assay: Cell proliferation assay Method B, SUP-B15; conditions: Homo sapiens, ALL, 72 hours, read-out: antiproliferative activity IC50, SUP-B15
Experimental: as §1

SKBr3 cells = assay: Cell proliferation assay Method B, SKBr3; conditions: Homo sapiens, SK-BR-3, Breast, 72 hours, read-out: antiproliferative activity IC50, SKBr3
Experimental: as §1

- IC50 (MDA-MB-468 cells): 100 to 1000 nM
- IC50 (L1210 cells): > 10000 nM
- IC50 (RPMI-8226 cells): 100 to 1000 nM
- IC50 (T47D cells): 1000 to 10000 nM
- IC50 (H460 cells): > 10000 nM
- IC50 (HCC1806 cells): 1000 to 10000 nM
- IC50 (U937 cells): 100 to 1000 nM
- IC50 (MDA-MB-436 cells): 1000 to 10000 nM
- IC50 (P388 D1 cells): > 10000 nM
- IC50 (H1975 cells): 1000 to 10000 nM
- IC50 (MDA-MB-231 cells): 1000 to 10000 nM
- IC50 (THP-1 cells): > 10000 nM
- IC50 (MCF-7 cells): 1000 to 10000 nM
- IC50 (H1993 cells): 1000 to 10000 nM
- IC50 (K562 cells): > 10000 nM
- IC50 (MDA-MB-361 cells): 1000 to 10000 nM
- IC50 (HCC1500 cells): 1000 to 10000 nM
- IC50 (MOLT-4 cells): 100 to 1000 nM
- IC50 (Daudi cells): > 10000 nM
- IC50 (A375 cells): 1000 to 10000 nM
- IC50 (MDA-MB-453 cells): 100 to 1000 nM
- IC50 (U87MG cells): 1000 to 10000 nM
- IC50 (HCC1937 cells): 1000 to 10000 nM
- IC50 (BT474 cells): 1000 to 10000 nM
- IC50 (MV-4-11 cells): 100 to 1000 nM
- IC50 (HL-60 cells): 100 to 1000 nM
- IC50 (Raji cells): 100 to 1000 nM
- IC50 (SKBr3 cells): 1000 to 10000 nM
Structure (SMILES): O=C(CCCCCCC(=O)Nc1ccccc1)NO [SAHA, Suberoylanilide hydroxamic acid, reference compound]
- IC50 (ZR-75-1 cells): 1000 to 10000 nM
- IC50 (Pfeiffer cells): > 10000 nM
- IC50 (MEG-01 cells): > 10000 nM
- IC50 (Sk-Mel-28 cells): 1000 to 10000 nM
- IC50 (Ca127 cells): 1000 to 10000 nM
- IC50 (ARH77 cells): 1000 to 10000 nM
- IC50 (UACC-893 cells): 1000 to 10000 nM
- IC50 (SUP-B15 cells): 100 to 1000 nM
